Article doi:10.1101/2023.04.13.536796
No constants are given. Whether binding was seen depends on the method and setting. In cells and extracts the contact can be indirect. Here binding means that the protein was enriched with, or labelled near, the bait; the list need not be complete.

Protein sequences, listed by entry. Tags and fused reporters are not part of them. Residues count along the entry.
UniProt Q9UBV2, residues 22-794: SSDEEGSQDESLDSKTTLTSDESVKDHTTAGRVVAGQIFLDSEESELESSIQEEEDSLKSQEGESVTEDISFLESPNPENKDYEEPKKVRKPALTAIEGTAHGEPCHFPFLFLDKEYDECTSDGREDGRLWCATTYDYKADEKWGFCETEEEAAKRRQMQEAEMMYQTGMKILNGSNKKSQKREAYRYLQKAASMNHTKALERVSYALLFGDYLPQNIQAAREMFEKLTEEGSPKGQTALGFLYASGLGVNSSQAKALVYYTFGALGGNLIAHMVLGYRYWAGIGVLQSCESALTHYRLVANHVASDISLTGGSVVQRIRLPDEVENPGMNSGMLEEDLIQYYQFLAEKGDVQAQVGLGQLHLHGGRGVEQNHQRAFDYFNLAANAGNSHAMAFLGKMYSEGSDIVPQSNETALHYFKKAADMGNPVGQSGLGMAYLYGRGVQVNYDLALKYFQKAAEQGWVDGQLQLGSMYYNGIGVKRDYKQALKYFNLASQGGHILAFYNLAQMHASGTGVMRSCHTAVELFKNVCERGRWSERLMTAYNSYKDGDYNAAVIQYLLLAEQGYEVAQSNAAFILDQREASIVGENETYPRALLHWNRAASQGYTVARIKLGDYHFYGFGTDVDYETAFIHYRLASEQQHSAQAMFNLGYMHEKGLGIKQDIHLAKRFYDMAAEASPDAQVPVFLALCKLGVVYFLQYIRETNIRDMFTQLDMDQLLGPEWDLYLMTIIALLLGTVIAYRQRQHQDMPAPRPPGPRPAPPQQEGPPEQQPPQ
UniProt Q86TM6: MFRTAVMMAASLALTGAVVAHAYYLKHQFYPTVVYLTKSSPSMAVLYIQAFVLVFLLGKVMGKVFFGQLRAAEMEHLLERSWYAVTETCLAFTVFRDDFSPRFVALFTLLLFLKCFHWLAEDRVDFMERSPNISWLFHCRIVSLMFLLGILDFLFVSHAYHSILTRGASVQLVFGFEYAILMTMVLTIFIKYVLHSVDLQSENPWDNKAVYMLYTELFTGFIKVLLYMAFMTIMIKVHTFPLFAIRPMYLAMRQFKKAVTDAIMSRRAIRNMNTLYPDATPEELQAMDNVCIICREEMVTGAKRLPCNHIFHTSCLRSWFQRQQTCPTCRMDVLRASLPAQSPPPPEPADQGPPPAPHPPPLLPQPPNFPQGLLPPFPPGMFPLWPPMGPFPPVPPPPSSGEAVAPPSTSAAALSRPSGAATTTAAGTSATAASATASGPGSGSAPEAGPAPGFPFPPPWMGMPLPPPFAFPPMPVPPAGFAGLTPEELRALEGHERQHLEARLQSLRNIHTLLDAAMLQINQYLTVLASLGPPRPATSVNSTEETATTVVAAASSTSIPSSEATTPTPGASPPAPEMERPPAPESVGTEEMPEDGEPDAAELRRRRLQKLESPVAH

Experiments:
Experiment in all cases: affinity purification with mass spectrometry
[1] = molecular target: SEL1L (suppressor of lin-12-like), endogenous (human (endogenous in HEK293T)) (UniProt Q9UBV2)
[2] = molecular target: HRD1 (HMG-CoA reductase degradation 1), endogenous (human (endogenous in HEK293T)), Q86TM6; conditions: remark: other sources report otherwise
[3] = molecular target: HRD1 (HMG-CoA reductase degradation 1), endogenous (human (endogenous in HEK293T)) (UniProt Q86TM6)

B1: OS9 (Osteosarcoma amplified 9), endogenous (protein, UniProt Q13438 26-667)
chain: GGVGSLNLEELSEMRYGIEILPLPVMGGQSQSSDVVIVSSKYKQRYECRLPAGAIHFQREREEETPAYQGPGIPELLSPMRDAPCLLKTKDWWTYEFCYGRHIQQYHMEDSEIKGEVLYLGYYQSAFDWDDETAKASKQHRLKRYHSQTYGNGSKCDLNGRPREAEVRFLCDEGAGISGDYIDRVDEPLSCSYVLTIRTPRLCPHPLLRPPPSAAPQAILCHPSLQPEEYMAYVQRQADSKQYGDKIIEELQDLGPQVWSETKSGVAPQKMAGASPTKDDSKDSDFWKMLNEPEDQAPGGEEVPAEEQDPSPEAADSASGAPNDFQNNVQVKVIRSPADLIRFIEELKGGTKKGKPNIGQEQPVDDAAEVPQREPEKERGDPERQREMEEEEDEDEDEDEDEDERQLLGEFEKELEGILLPSDRDRLRSEVKAGMERELENIIQETEKELDPDGLKKESERDRAMLALTSTLNKLIKRLEEKQSPELVKKHKKKRVVPKKPPPSPQPTEEDPEHRVRVRVTKLRLGGPNQDLTVLEMKRENPQLKQIEGLVKELLEREGLTAAGKIEIKIVRPWAEGTEEGARWLTDEDTRNLKEIFFNILVPGAEEAQKERQRQKELESNYRRVWGSPGGEGTGDLDEFDF
- binding [1]: binds

B2: HERP1 (Homocysteine-induced ER protein 1), endogenous (protein, UniProt Q15011 1-391)
chain: MESETEPEPVTLLVKSPNQRHRDLELSGDRGWSVGHLKAHLSRVYPERPRPEDQRLIYSGKLLLDHQCLRDLLPKQEKRHVLHLVCNVKSPSKMPEINAKVAESTEEPAGSNRGQYPEDSSSDGLRQREVLRNLSSPGWENISRPEAAQQAFQGLGPGFSGYTPYGWLQLSWFQQIYARQYYMQYLAATAASGAFVPPPSAQEIPVVSAPAPAPIHNQFPAENQPANQNAAPQVVVNPGANQNLRMNAQGGPIVEEDDEINRDWLDWTYSAATFSVFLSILYFYSSLSRFLMVMGATVVMYLHHVGWFPFRPRPVQNFPNDGPPPDVVNQDPNNNLQEGTDPETEDPNHLPPDRDVLDGEQTSPSFMSTAWLVFKTFFASLLPEGPPAIAN
- binding [1]: binds

B3: HERP1 (Homocysteine-induced ER protein 1), endogenous, Q15011 1-391 (protein)
chain: MESETEPEPVTLLVKSPNQRHRDLELSGDRGWSVGHLKAHLSRVYPERPRPEDQRLIYSGKLLLDHQCLRDLLPKQEKRHVLHLVCNVKSPSKMPEINAKVAESTEEPAGSNRGQYPEDSSSDGLRQREVLRNLSSPGWENISRPEAAQQAFQGLGPGFSGYTPYGWLQLSWFQQIYARQYYMQYLAATAASGAFVPPPSAQEIPVVSAPAPAPIHNQFPAENQPANQNAAPQVVVNPGANQNLRMNAQGGPIVEEDDEINRDWLDWTYSAATFSVFLSILYFYSSLSRFLMVMGATVVMYLHHVGWFPFRPRPVQNFPNDGPPPDVVNQDPNNNLQEGTDPETEDPNHLPPDRDVLDGEQTSPSFMSTAWLVFKTFFASLLPEGPPAIAN
- binding [2]: binds

B4: ABCD3, endogenous (protein, UniProt P28288 1-659)
chain: MAAFSKYLTARNSSLAGAAFLLLCLLHKRRRALGLHGKKSGKPPLQNNEKEGKKERAVVDKVFFSRLIQILKIMVPRTFCKETGYLVLIAVMLVSRTYCDVWMIQNGTLIESGIIGRSRKDFKRYLLNFIAAMPLISLVNNFLKYGLNELKLCFRVRLTKYLYEEYLQAFTYYKMGNLDNRIANPDQLLTQDVEKFCNSVVDLYSNLSKPFLDIVLYIFKLTSAIGAQGPASMMAYLVVSGLFLTRLRRPIGKMTITEQKYEGEYRYVNSRLITNSEEIAFYNGNKREKQTVHSVFRKLVEHLHNFILFRFSMGFIDSIIAKYLATVVGYLVVSRPFLDLSHPRHLKSTHSELLEDYYQSGRMLLRMSQALGRIVLAGREMTRLAGFTARITELMQVLKDLNHGKYERTMVSQQEKGIEGVQVIPLIPGAGEIIIADNIIKFDHVPLATPNGDVLIRDLNFEVRSGANVLICGPNGCGKSSLFRVLGELWPLFGGRLTKPERGKLFYVPQRPYMTLGTLRDQVIYPDGREDQKRKGISDLVLKEYLDNVQLGHILEREGGWDSVQDWMDVLSGGEKQRMAMARLFYHKPQFAILDECTSAVSVDVEGYIYSHCRKVGITLFTVSHRKSLWKHHEYYLHMDGRGNYEFKQITEDTVEFGS
- binding [3]: binds

B5: UBE2J1, endogenous (enzyme, UniProt Q9Y385 1-318)
chain: METRYNLKSPAVKRLMKEAAELKDPTDHYHAQPLEDNLFEWHFTVRGPPDSDFDGGVYHGRIVLPPEYPMKPPSIILLTANGRFEVGKKICLSISGHHPETWQPSWSIRTALLAIIGFMPTKGEGAIGSLDYTPEERRALAKKSQDFCCEGCGSAMKDVLLPLKSGSDSSQADQEAKELARQISFKAEVNSSGKTISESDLNHSFSLTDLQDDIPTTFQGATASTSYGLQNSSAASFHQPTQPVAKNTSMSPRQRRAQQQSQRRLSTSPDVIQGHQPRDNHTDHGGSAVLIVILTLALAALIFRRIYLANEYIFDFEL
- binding [1]: binds

B6: FAM8A1 (Family with sequence similarity 8 member A1), endogenous (protein, UniProt Q9UBU6 1-413)
chain: MAEGPEEARGHPPGQDDGGGDHEPVPSLRGPPTTAVPCPRDDPQAEPQAPGRPTAPGLAAAAAADKLEPPRELRKRGEAASGSGAELQEQAGCEAPEAAAPRERPARLSAREYSRQVHEWLWQSYCGYLTWHSGLAAFPAYCSPQPSPQSFPSGGAAVPQAAAPPPPQLGYYNPFYFLSPGAAGPDPRTAAGISTPAPVAGLGPRAPHVQASVRATPVTRVGSAAPSRSPSETGRQAGREYVIPSLAHRFMAEMVDFFILFFIKATIVLSIMHLSGIKDISKFAMHYIIEEIDEDTSMEDLQKMMVVALIYRLLVCFYEIICIWGAGGATPGKFLLGLRVVTCDTSVLIAPSRVLVIPSSNVSITTSTIRALIKNFSIASFFPAFITLLFFQHNRTAYDIVAGTIVVKRNGVR
- binding [1]: binds
- binding [3]: binds
